According to patent US20050069542A1 (Human Genome Sciences, published 2005):
These are yes or no findings as the source states them, for the method shown. Some results given as binding are weak or reduced against the parent protein; the word gives no strength. Blank lines part the entries; values can stand above or below the binder they belong to.

By UniProt entry, the sequences of proteins in these tests, tags left out. Where a name states a change or a piece, a line headed by the entry shows the natural chain unless it says otherwise.
UniProt Q9HD89: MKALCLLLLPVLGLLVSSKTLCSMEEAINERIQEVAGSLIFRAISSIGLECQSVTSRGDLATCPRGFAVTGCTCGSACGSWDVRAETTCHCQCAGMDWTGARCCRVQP

Key:
[1] = target: Flag-tagged recombinant human GMAD (human) (UniProt Q9HD89); test: phage display selection of scFvs
[2] = target: Flag-tagged recombinant human GMAD (human) (UniProt Q9HD89); test: phage ELISA

B1: GMCC119 (scFv)
scFv: EVQLVQSGPEVKKPGASVKVSCKASNYTFTTYDISWVRQAPGQGLEWMGWISTYSGNTKYAQKFQGRVTMTRDTSTSAAYMELRNLRSDDTAVYFCARDIRVWRGSGSVHYFDPWGRGTTVTVSSGGGGSGGGGSGGGGSAQSALTQPRSVSGSPGQSVTISCTGTSNDVGGYNFVSWYQQHPGKAPKLMVYNVSKRPSGVPDRFSGSKSGNTASLTISGLQAEDEADYYCSSYAHSYTLVFGGGTKVTVLG
binding [1]: binds
binding [2]: binds

B2: GMCC126 (scFv)
scFv: QVQLQESGPGLVKPSQTLSLSCAVSGFSVTSGHYWGWIRQSPGKGLEWIGNIYHTGSTRYNPSLESRVSMSVDTSKNQFSLRLTSVTAADTAIYYCARVGRGQHLVRGDFDYWGRGTLVTVSSGGGGSGGGGSGGGGSAQSVLTQPPSISVSPGQTASITCSGDELGHKYASWYQQKPGQSPVVVVYQDNKRPSGIPERFSGSSSGNTATLTISGTQAVDEADYFCQAWDSSAVVFGGGTKLTVLG
binding [1]: binds
binding [2]: binds

B3: GMCC114 (scFv)
scFv: EVQLVESGPEVKKPGSSVKVSCKASGAAAFSSYAISWVRQAPGRGLEWMGGIIPISDTPKYAHKFQGRVTITADESTTTVFMEVSGLRSDDTAVYYCATTTRYGSGTYDYMDVWGQGTMVTVSSGGGGSGGGGSGGGGSALSSELTQDPAVSVALGQTVRITCQGDSLRSYYASWYQQKPGQAPVLVFYGKNKRPSGIPDRFSGSTSGNTASLSITGALADDEADYYCHSRDTSGAQILFGGGTKLTVLG
binding [1]: binds
binding [2]: binds

B4: GMCC125 (scFv)
scFv: EVQLVQSGGGLVKPGGSLRLSCAASGFSFSDYSMHWIRQAPGKGLEWLSHIGTSTSYTNYADSVKGRFTISRDNAKNSFYLQMNSLRVDDTAVYFCARGFGGLRGYFDYWGQGTLVTVSSGGGGSGGGGSGGGGSALSSELTQDPAVSVALGQTVKITCQGDRLRRFYASWYQQKPGQAPLLLIYGKNSRPSGIPDRFSGSTSGATASLTITGAQAEDEADYYCNSRDSSGSLHSVFGTGTKVTVLG
binding [1]: binds
binding [2]: binds

B5: GMCC124 (scFv)
scFv: QVTLKESGAEVKKPGASVKVSCKASGYTFTDNALHWVRQAPGQRPEWMAWINTANGNTRYSQKFQGRLTITRDTSASTAFMDLSSLRSEDTAVYYCARQKAYKNYYYYYGMDVWGQGTLVTVSSGGGGSGGGGSGGGGSAQSVVTQPPSVSAAPGQKVTISCSGSSSNIGNNYVSWYQQLPGTAPKLLIYENNKRPSGIPDRFSGSQSGTSATLGISGLQTGDEADYYCGTWDSSLRAGVFGGGTKLTVLG
binding [1]: binds
binding [2]: binds

Results, then the binder that gave them:

binding [1]: binds
binding [2]: binds
B6: GMCC142 (scFv)
scFv: EVQLVQSGAEVKKPGASVTISCKASGYTFTAYYIYWVRQAPGQGLEWMGMSNPNGGYTVYPPNFLGRVTTTPDTSTNTIYMELRSLRSEDTAVYYCARGRGRAPSNAFDFWGRGTLVTVSSGGGGSGGGGSGGGGSALSSELTQDPAVSVALGQTVRITCQGDSLKFYYASWYQQKPGQAPVLVLHGKNNRPSGIPDRFSGSTSRDTASLTITGTQAEDEADYYCNSRDNSDNIVFGTGTKLTVLG

binding [1]: binds
binding [2]: binds
B7: GMCC112 (scFv)
scFv: QVQLVQSGGGLVQPGGSLRLSCAASGFSFSTYAMSWVRQAPGKGLEWVSGVSDGGDTFYADSVRGRFTLSRDNAKNTLFLQMNSLTAEDTATYYCAKEIARIGVPNFDHWGQGTLVTVSSGGGGSGGGGSGGGGSALETTLTQSPGTLSLSPGDRATLSCRASQSIRNNDVAWYQQKPGQAPRLLIYSASRRATDIPDRFSGSASGTDFTLTISRLEPEDFAMYYCQQYGGSASFGQGTRLEIKR

binding [1]: binds
binding [2]: binds
B8: GMCC127 (scFv)
scFv: QVQLVQSGGGVVRPGGSLRLSCAASGFTFDDYGMSWVRQAPGKGLEWVSGINWNGGSTGYADSVKGRFTISRDNAKNSLYLQMNSLRAEDTAVYYCARRRYALDYWGRGTLVTVSSGGGGSGGGGSGGGGSALSSELTQDPAVSVALGQAVRITCQGDSLRTNYASWYQQRPGQAPVLVIRGNNNRPSGIPDRFSGSNSGDTVSLTITGAQAEDEADYYCNSRDTSGYHYVFGTGTKLTVLG

binding [1]: binds
binding [2]: binds
B9: GMCC131 (scFv)
scFv: QVQLQESGPGLVKPSETLSLTCSVSGGSIRSHYWSWMRQPPGKGLEWIGYVYYTGSTNYNPSLKSRVTMSVDTSKNQFSLNLSSVTAADTAIYYCARFPYSSGSNPLDYWGRGTLVTVSSGGGGSGGGGSGGGGSAQSVLTQPPSVSAAPGQRVTISCTGSSSNIGARYDVHWYQHLPGTAPKLLIYGDSNRPSGVPDRFSGSKSGTSASLAITGLQPEDEADYYCQSYDSSLSGVVFGGGTKVTVLG

binding [1]: binds
binding [2]: binds
B10: GMBC604 (scFv)
scFv: EVQLVQSGAEVKKPGESLRISCKGSGYTFTNYWINWVRQVPGKGLEWMGMIDPTDSYAKYSPSFQGHVTISTDKSVSTAYLQWRSLQASDSAIYYCVRGYSYDLDYWGKGTLVTVSSGGGGSGGGGSGGGGSQSVLTQPASVSGSPGQSITISCTGTSSDVGGYNYVSWYQQHPGKAPKLMIYEGSKRPSGVSNRFSGSKSGNTASLTISGLQAEDEADYYCSSYTTRSTRVFGGGTKLTVLG

binding [1]: binds
binding [2]: binds
B11: GMCC138 (scFv)
scFv: EVQLVETGPGLVKPSQTLSLTCTVSGGSISSGGYYWSWIRQVPGKGLEWIGYNFYNGSTYFNPSLKSRATISIDTTKNQFSLKLSSVTAADTAVYYCARGNGYRYGRWFDPWGRGTLVTVSSGGGGSGGGGSGGGGSALSYELTQPPSVSVSPGQTARITCSGDALPKQYAYWYQQKPGQAPVLVISKDSERPSGIPERFSGSSSGTTVTLTISGVQAEDEADYYCQSADSSGTYWVFGGGTKVTVLG

binding [1]: binds
binding [2]: binds
B12: GMCC129 (scFv)
scFv: EVQLVETGGGLAQPGGSLRLSCEASGFTFNNYAMSWVRQAPGKGLEWVSGISISGYSTFYTDSVQGRFTISRDNSKNTLYLQMNSLGVDDTAVYYCAKRRGEGGDFDYWGRGTMVTVSSGGGGSGGGGSGGGGSALSSELTQDPAVSVALGQTVRITCQGDSLRGYYASWYQQKAGQAPVLVIYGKNNRPSGIPDRFSGSSSGNTASLTITGAQAEDEADYYCYSRDRSGNHLGMFGGGTKVTVLG

binding [1]: binds
binding [2]: binds
B13: GMCC118 (scFv)
scFv: EVQLVQSGGGLVKPGGSLRLSCTASGFSFTNAWMSWVRQAPGKGLEWVGRIKSRNDGGATDYAAPVKGRFTISRDDSKNTLYLQMNSLKTDDTAVYYCTTDNFPLRFLEWLSHPDYWGQGTMVTVSSGGGGSGGGGSGGGGSAQAVLTQPSSVSVSPGQTVTITCSGEKLDNKYISWYQQRPGRSPILVIYQDRKRPSGIPERFSGSNSGNTATLTITGSQPLDEADYYCQAWDSSTAWEFGGGTKLTVLG
